Screening data, single-dose tests

The chains behind the UniProt entries cited, without tags or fusion partners. Residues count along the entry.
UniProt I6X8D2, whole entry: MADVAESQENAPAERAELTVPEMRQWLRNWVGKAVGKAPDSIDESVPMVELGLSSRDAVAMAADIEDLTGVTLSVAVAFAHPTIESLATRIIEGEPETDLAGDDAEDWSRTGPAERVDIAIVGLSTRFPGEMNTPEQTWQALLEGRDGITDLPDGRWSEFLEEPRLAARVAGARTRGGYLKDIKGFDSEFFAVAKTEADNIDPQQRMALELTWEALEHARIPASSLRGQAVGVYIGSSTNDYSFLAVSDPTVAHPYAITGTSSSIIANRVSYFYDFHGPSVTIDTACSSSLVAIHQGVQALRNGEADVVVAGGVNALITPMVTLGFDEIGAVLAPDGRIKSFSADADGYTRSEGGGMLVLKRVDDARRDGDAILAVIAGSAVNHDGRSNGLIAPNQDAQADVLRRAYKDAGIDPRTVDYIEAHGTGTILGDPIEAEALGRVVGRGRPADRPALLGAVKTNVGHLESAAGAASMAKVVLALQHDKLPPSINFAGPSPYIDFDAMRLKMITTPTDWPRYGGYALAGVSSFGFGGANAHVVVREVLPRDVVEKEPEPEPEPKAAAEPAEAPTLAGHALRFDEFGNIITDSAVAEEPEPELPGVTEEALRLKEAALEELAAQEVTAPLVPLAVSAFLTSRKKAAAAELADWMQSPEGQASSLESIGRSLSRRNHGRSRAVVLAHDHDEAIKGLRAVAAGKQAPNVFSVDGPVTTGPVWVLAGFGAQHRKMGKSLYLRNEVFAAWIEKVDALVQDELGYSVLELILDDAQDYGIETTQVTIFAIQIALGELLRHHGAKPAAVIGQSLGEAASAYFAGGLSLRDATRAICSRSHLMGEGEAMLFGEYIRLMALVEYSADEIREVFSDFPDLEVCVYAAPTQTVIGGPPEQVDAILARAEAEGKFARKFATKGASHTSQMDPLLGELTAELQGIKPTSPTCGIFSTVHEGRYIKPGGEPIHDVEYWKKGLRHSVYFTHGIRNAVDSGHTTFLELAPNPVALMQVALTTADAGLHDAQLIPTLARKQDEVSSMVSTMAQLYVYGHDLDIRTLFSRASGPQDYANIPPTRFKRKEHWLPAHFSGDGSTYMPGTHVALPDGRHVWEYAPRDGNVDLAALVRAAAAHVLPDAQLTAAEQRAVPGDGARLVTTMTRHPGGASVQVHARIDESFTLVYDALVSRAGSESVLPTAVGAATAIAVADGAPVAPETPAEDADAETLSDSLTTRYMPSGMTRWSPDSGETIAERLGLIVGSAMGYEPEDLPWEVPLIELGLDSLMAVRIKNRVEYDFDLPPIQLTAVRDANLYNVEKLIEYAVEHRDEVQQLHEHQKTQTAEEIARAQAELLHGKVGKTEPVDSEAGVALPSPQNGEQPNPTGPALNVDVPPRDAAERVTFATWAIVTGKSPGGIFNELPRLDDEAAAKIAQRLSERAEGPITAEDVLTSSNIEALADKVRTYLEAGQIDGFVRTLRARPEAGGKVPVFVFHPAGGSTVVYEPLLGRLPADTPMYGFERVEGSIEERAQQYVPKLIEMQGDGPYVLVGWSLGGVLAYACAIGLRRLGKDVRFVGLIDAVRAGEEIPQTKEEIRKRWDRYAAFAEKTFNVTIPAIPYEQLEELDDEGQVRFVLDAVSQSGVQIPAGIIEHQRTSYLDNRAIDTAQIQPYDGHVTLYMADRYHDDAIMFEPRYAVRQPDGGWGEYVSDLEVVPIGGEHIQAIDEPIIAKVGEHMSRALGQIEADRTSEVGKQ
UniProt Q8IDJ8, 1-583: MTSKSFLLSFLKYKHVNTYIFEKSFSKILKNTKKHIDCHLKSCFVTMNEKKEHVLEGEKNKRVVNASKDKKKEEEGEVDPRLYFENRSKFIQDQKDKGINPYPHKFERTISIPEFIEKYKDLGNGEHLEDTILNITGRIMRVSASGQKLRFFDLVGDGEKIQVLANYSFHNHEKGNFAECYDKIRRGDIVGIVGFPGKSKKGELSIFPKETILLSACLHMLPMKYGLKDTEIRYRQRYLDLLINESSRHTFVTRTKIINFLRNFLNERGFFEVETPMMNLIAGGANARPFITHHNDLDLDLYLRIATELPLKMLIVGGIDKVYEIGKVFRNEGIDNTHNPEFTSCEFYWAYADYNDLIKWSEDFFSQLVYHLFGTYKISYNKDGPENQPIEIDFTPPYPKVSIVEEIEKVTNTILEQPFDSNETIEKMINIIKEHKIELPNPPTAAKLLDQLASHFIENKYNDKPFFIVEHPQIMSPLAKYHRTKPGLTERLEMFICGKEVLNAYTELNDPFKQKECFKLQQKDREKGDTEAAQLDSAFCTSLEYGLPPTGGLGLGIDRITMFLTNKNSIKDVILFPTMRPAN
UniProt P9WNZ1, whole entry: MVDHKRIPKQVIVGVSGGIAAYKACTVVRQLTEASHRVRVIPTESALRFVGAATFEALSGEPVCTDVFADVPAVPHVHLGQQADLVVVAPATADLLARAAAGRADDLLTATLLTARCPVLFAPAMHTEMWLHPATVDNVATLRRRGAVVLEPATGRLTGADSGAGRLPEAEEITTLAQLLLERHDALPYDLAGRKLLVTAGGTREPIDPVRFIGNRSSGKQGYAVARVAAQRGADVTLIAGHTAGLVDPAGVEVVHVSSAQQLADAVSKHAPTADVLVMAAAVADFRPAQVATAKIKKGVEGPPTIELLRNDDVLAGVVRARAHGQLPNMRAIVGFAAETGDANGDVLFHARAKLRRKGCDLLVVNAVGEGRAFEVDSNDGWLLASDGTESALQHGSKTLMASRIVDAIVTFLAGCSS

The filed quantity is “Percent Effect” (%).
The record does not define 0% and 100%; most values in the screen are far below 50% and negative numbers occur (in some assays of this library far below -100).
This is an unselected part of the compounds tested.
A dash means the value is not listed here; it may have been measured.

Pks13 thioesterase: 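Enzyme assay of the thioesterase domain of polyketide synthase 13; the read-out is not stated. Target: Polyketide synthase Pks13, Mycobacterium tuberculosis (UniProt I6X8D2). Tested at 30 µM. The record gives no direction; the compounds picked for IC50 retests had high values, so higher reads as stronger inhibition. Size under these conditions: about 67,000 compounds, about 300 of them at 50% or above in at least one test.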
PfKRS1: 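Lysine-tRNA ligase, Plasmodium falciparum 3D7 (UniProt Q8IDJ8). Enzyme assay of the cytosolic lysyl-tRNA synthetase in 384-well plates, read by luminescence. Concentration: 30 µM. Higher reads as stronger inhibition, judged from the few compounds that gave an IC50. Of about 69,000 compounds tested this way, about 49 (0.071%) reached 50% or more in at least one test.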
CoaBC: 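Enzyme assay of CoaBC with a phosphate dye (Biomol Green) read at 650 nm. Target: Coenzyme A biosynthesis protein CoaBC, Mycobacterium tuberculosis (UniProt P9WNZ1). Tested at 30 µM. Higher reads as stronger inhibition, judged from the few compounds that gave an IC50. Most strong results did not repeat in a second test. Size under these conditions: about 67,000 compounds, about 40 of them at 50% or above in at least one test.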

SMILES,Pks13 thioesterase,PfKRS1,CoaBC
c1cc(CN2CCO[C@@H]3CNC[C@@H]32)co1,-0.4753%,1.007%,-5.417%
Cc1nnc(CN2CCC3(CCC(=O)N([C@H]4CC[C@H](O)CC4)C3)CC2)o1,4.744%,-1.812%,8.415%
CC(C)CNC(=O)[C@H]1C[C@@H]2CN(Cc3cccnc3)C[C@H]1O2,-,3.074%,-
CC(C)Cc1cc(C(=O)N2CCCN(c3ncccn3)CC2)[nH]n1,-13.75%,1.188%,-0.9615%
O=C(NCCCN1CCCCCC1=O)c1n[nH]c(=O)c2ccccc12,6.983%,-0.4499%,7.273%
CNc1cc(C(=O)N2CCOC(C(=O)NC3CCCC3)C2)ccn1 (centres unmarked),-5.292%,1.903%,4.54%
O=C1NCC2(CCCN(C(=O)Cn3nc4ccccc4n3)CC2)O1 (centres unmarked),-15.11%,-3.435%,-1.85%
CCC1(CO)CCCN(Cc2nccn2Cc2ccccc2)C1 (centres unmarked),-31.11%,9.778%,-5.15%
CN1CCN(c2ncccn2)CC1C(N)=O (centres unmarked),-24.67%,-3.357%,-0.7282%
Cn1cc(CN2CCCCC2c2ccc(-c3cccc(F)c3)nc2)cn1 (centres unmarked),0.7323%,0.03504%,1.214%
O=C(O)C1(Cc2ccccc2Cl)CCN(c2ncccn2)CC1,20.56%,7.152%,1.288%
CN(C)CCN1CCOCC2(CCCN(C(=O)Cc3ccccc3)C2)C1 (centres unmarked),29.87%,6.739%,-24.43%
Cn1ncc2c1NC(=O)CC2c1c(F)cccc1Cl (centres unmarked),-3.17%,2.455%,-1.392%
Cc1ccsc1CNC(=O)Nc1ccn(CCN2CCOCC2)n1,1.683%,-1.313%,0%

Once more, the final 2:

SMILES,Pks13 thioesterase,PfKRS1,CoaBC
Cn1ncc2c1NC(=O)CC2c1c(F)cccc1Cl (centres unmarked),-3.17%,2.455%,-1.392%
Cc1ccsc1CNC(=O)Nc1ccn(CCN2CCOCC2)n1,1.683%,-1.313%,0%

From ChEMBL document CHEMBL3988442, “University of Dundee, Small-Polar-MMV Screening Library” (2021).